Patent publication US20210054055A1
No constants are given. Whether binding was seen depends on the method and setting. Some binding calls cover weakened binding; strength is not graded here.

Assays:
[1] = molecular target: ZVEDI, recombinant ZIKV E domain I (Zika virus); assay: ELISA on recombinant ZVEDI
[2] = molecular target: ZVEDI, recombinant ZIKV E domain I (Zika virus); assay: ELISA on recombinant antigens
[3] = molecular target: ZVEDI, recombinant ZIKV E domain I (Zika virus); assay: ELISA on recombinant ZIKV antigens (FIG. 9)

Measured: binding

B1: Anti-ZIKV clone DT168(A)-D1_A-9E (A9E) (antibody, V domains shown)
VH: EVQLLESGGGLVQAGGSLRLSCAASGFTFDTYAMSWVRQPPGKGLEWVSAISTGGGSKYYADSVKGRLTISRDNSQNTLYLQMSSLRADDTAVYYCARSDFWRSGRYYYYMDVWGRGTTVTVSS
VL: QSALTQPASVSASPGQSITISCTGTHFDIVDYDYLSWYQQHPGNAPKLLIYGVSNRPSGVSSRFSGSKSGNTASLTISGLQAEDEGDYYCSSYSISSTLLVFGGGTKLSV
binds: all assays above
